Results from patent US20050176938A1, “Anhydrate/hydrate of an erythromycin derivative and processes for preparing said anhydrate/hydrate” (Chugai Seiyaku Kabushiki Kaisha, priority 2002, published 2005).
Counter-ions that a name gives are not always drawn. Some of these results come from one statement about several compounds together.

Test: Moisture absorption isotherms / transition between Crystal form D anhydrate and X-hydrate
Assay type: physicochemical
Conditions: on a small scale

For CC[C@H]1OC(=O)[C@H](C)[C@@H](O[C@H]2C[C@@](C)(OC)[C@@H](O)[C@H](C)O2)[C@H](C)[C@@H](O[C@@H]2O[C@H](C)C[C@H](N(C)C(C)C)[C@H]2O)[C@@]2(C)CC(C)=C(O2)[C@H](C)C(=O)[C@]1(C)OC [Crystal form D anhydrate, [2S, 4R, 5R, 8R, 9S, 10S, 11R, 12R]-9-[(2,6-dideoxy-3-C-methyl-3-O-methyl-α-L-ribo-hexopyranosyl)oxy]-5-ethyl-4-methoxy-2,4,8,10,12,14-hexamethyl-11-[[3,4,6-trideoxy-3-(isopropylmethylamino)-β-D-xylo-hexopyranosyl]oxy]-6,15-dioxabicyclo[10.2.1]pentadec-14(1)-ene-3,7-dione (E)-2-butenedioic acid salt (2:1)], the “period within which the anhydrate/X-hydrate transition occurs” value was ≤ 10 min.
